No constants are given. Whether binding was seen depends on the method and setting. Some binding calls cover weakened binding; strength is not graded here.
Columns and labels:
[1] = target: 重组人IL-5蛋白 (recombinant Human IL-5, R&D Systems 205-IL-005) (human) (UniProt P05113); assay: BLI (Gator) pairing assay, His-tag recombinant human IL-5 5 μg/mL
[2] = target: 重组人IL-5蛋白 (recombinant Human IL-5, R&D Systems 205-IL-005) (human) (UniProt P05113); assay: sandwich ELISA, 16D2 capture, 24A10-biotin detection, human IL-5 100 pg/mL
[3] = target: 重组人IL-5蛋白 (recombinant Human IL-5, R&D Systems 205-IL-005) (human) (UniProt P05113); assay: BLI (Gator) pairing assay, after 16D2 had bound IL-5

Amino acid sequences for entries named in this document (tags omitted). Residues count along the entry.
UniProt P05113, residues 20-134: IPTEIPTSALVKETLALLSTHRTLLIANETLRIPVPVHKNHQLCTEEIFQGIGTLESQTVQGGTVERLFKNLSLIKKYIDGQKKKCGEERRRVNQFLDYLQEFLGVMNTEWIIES

binding [1]	binding [2]	binding [3]	Binder
binds	binds	–	兔单克隆抗体16D2 (anti-human IL-5 rabbit monoclonal antibody 16D2) (antibody, V domains shown) VH: QEQLEESGGDLVKPEGSLTLTCTASGFSFSINYWICWVRQAPGKGLEWIACIYGGSSGSAYYATWAKGRFTISKTSSTTVTLQMTSLTAADTATYFCARDDEGGGIFYNLWGPGTLVTVSS VL: AYDMTQTPSSASEPVGGTVTIKCQASEDIYNLLAWYQQKPGQPPKLLIYSASTLASGVPSRFKGSGSGTEYTLTISDLECADAATYYCEQHYTPSNVHNTFGGGTEVVVKG
–	binds	binds	兔单克隆抗体24A10 (anti-human IL-5 rabbit monoclonal antibody 24A10) (antibody, V domains shown) VH: QSLEESGGGLVQPEGSLTLTCTASGFSFSSSYYMCWVRQAPGKGLEWIGCIAAGSSGISYYASWAKGRFTISKTSSTTVTLQMTGLTAADTATYLCSRSCDIYSDGGTSFDLWGPGTLVTVSS VL: DVVMTQTPASVSEPVGGTVTIKCQASQSISSYLAWYQQKPGQPPKLLIYEASKLASGVPSRFKGSGSGTEFTLTISDLECADAATYYCESNYDITSSYFGGGTEVVVKG
